No constants are given. Whether binding was seen depends on the method and setting. For some assays here: Binding seen in cells or lysates may run through a third protein. Some binding calls cover weakened binding; strength is not graded here.
Columns and labels:
[1] = target: Strep-tagged p65 (UniProt Q04206); assay: co-IP; lysates of myometrial cells transfected with Strep-p65 and Halo-tagged PRA or PRB; immunoprecipitated with anti-Strep antibody and protein G-agarose at 4°C, lysis buffer 1% NP40, 150 mM NaCl, 50 mM Tris-HCl pH 7.4, 1 mM EDTA, 10% glycerol; Western blot with anti-Halo antibody
[2] = target: progesterone receptor (endogenous, myometrial cells) (human (endogenous in primary myometrial cells)) (UniProt P06401); assay: TF:TF array; unpublished data; IL-1β-stimulated myometrial cells without overexpression of either PR or p65

The chains behind the UniProt entries cited, without tags or fusion partners. Where a name states a change or a piece, a line headed by the entry shows the natural chain unless it says otherwise. A line that says so, or that is headed by a name, gives the form on record, which may keep a tag or linker. Residues count along the entry.
UniProt Q04206: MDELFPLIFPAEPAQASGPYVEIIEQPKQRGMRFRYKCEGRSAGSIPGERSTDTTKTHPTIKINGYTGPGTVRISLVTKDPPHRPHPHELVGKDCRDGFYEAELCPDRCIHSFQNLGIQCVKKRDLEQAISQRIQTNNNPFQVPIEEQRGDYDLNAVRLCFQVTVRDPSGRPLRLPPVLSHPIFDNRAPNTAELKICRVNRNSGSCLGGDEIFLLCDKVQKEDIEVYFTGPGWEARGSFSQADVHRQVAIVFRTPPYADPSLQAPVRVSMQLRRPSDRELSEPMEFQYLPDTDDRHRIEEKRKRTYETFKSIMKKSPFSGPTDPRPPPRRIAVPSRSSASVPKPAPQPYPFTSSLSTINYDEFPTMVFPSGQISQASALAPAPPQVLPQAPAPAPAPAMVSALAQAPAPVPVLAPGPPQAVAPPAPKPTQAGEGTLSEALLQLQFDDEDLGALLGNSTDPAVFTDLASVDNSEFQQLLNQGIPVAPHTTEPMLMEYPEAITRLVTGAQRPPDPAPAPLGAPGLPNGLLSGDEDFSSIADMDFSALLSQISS
UniProt P06401: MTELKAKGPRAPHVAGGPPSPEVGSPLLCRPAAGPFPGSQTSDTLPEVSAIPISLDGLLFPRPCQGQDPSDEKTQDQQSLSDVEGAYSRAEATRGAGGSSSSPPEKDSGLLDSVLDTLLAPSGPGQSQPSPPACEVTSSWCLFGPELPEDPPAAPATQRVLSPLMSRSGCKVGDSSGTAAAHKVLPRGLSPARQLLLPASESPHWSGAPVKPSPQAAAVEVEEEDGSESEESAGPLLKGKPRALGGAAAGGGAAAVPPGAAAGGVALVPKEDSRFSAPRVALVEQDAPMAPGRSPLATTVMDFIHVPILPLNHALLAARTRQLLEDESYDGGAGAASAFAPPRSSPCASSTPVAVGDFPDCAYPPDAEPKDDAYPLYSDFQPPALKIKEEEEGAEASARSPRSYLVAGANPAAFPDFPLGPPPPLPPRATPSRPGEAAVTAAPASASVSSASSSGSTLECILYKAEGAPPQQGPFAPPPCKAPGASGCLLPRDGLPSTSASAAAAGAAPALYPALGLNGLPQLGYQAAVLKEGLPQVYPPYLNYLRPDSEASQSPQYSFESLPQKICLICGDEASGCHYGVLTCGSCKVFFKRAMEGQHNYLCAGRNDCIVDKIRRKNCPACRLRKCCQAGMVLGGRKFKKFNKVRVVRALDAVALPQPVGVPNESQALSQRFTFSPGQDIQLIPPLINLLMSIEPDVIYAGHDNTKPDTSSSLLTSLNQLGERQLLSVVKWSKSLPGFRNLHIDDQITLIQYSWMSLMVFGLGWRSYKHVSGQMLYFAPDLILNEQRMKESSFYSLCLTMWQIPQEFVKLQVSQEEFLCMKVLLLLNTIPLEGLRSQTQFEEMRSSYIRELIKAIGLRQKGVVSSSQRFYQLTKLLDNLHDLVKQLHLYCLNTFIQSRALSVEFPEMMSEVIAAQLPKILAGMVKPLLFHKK
Halo-tagged progesterone receptor A (PRA): residues 165-933 of P06401

Halo-tagged progesterone receptor A (PRA) (from UniProt P06401-2 1-769)
binding [1]: no binding

activated p65 (endogenous, IL-1β-stimulated myometrial cells) (from UniProt Q04206 1-551)
binding [2]: binds
